# Test results published in publication PMC12198385.
# The chains behind the UniProt entries cited, without tags or fusion partners.
# UniProt Q61188: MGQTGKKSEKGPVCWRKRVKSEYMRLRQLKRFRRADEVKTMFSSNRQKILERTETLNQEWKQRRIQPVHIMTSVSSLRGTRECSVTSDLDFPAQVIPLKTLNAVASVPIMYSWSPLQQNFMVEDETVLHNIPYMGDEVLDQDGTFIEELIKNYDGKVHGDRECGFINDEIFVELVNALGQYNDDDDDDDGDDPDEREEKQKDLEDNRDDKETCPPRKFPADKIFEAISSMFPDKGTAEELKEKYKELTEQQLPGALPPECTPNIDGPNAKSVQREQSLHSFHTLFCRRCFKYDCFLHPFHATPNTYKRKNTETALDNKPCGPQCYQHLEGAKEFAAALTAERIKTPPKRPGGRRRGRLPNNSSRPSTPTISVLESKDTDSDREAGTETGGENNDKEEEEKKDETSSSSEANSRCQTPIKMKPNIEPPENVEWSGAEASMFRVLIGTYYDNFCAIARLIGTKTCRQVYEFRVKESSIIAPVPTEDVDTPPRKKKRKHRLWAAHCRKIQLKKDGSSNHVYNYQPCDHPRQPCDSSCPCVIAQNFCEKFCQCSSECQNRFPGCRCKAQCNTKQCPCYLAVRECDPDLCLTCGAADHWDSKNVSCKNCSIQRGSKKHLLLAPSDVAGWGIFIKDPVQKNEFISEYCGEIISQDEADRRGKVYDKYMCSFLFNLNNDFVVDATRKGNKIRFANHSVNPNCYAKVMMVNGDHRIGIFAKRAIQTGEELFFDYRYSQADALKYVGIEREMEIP
# Results are given in words; binding and its absence hold for the method and conditions named. Binding seen in cells or lysates may run through a third protein. Some binding calls cover weakened binding; strength is not graded here.
# Molecular target: T1, human IκBζ (human) (UniProt Q9BYH8)
# T1 sequence: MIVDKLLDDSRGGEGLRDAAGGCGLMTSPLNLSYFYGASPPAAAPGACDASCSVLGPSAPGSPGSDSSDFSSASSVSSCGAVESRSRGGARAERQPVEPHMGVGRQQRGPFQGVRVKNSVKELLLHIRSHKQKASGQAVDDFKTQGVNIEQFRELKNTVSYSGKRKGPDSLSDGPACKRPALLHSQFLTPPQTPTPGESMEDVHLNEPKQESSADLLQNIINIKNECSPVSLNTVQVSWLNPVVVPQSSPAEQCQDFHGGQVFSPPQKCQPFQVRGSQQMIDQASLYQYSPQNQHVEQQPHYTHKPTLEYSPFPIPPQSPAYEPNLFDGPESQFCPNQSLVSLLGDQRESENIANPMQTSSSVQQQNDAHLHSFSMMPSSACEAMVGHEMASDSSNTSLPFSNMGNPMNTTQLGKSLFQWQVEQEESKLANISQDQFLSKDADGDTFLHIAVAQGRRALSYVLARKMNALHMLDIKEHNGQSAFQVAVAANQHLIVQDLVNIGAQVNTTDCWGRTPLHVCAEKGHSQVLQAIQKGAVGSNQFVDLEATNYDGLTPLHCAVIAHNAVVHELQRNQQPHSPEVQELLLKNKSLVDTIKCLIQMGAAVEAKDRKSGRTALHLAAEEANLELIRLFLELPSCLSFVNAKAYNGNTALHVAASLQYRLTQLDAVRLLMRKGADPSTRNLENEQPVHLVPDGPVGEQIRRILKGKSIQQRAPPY
# Assay: co-IP; IκBζ precipitated with an anti-IκBζ antibody from pre-cleared lysates (overnight, 4 °C, protein A/G PLUS agarose) of control and IκBζ-overexpressing B16-F10 cells; immunoblot with HDAC3 or EZH2 antibody
substance,measurement,value
EZH2 (from UniProt Q61188 1-746),binding,binds
